# Percent effect of library compounds

Mtb cholesterol medium: 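Growth of Mycobacterium tuberculosis over 4 days (cholesterol / DPPC medium with tyloxapol); the read-out is not stated. Tested at 500 µM. Higher reads as more growth inhibition (inferred: compounds with an IC50 in retests scored well above the rest). Size under these conditions: about 18,000 compounds, about 900 of them at 50% or above in at least one test.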
Mtb glucose medium: 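Whole-cell growth test on Mycobacterium tuberculosis, read after 3 days in glucose-containing 7H9 medium; the read-out is not stated. Tested at 500 µM. The record gives no direction; compounds that gave an IC50 in retests scored well above the rest, so higher reads as more growth inhibition. Of about 18,000 compounds tested this way, about 1,400 (7.9%) reached 50% or more in at least one test.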

Results are given as percent effect.
The record does not define 0% and 100%; most values in the screen are far below 50% and negative numbers occur (in some assays of this library far below -100).
Compounds were drawn at random from those tested, without regard to their results.

O=C(c1nc(N2CCCC2)ncc1Cl)N1CCSCC1 read Mtb cholesterol medium: 2.054%; Mtb glucose medium: 31.1%.
CCc1nc(CNC(=O)C2CCCO2)cs1 (centres undefined) read Mtb cholesterol medium: 9.525%; Mtb glucose medium: 19.99%.
O=C(NCc1n[nH]c(=O)[nH]1)C1COc2ccccc21 (centres undefined) read Mtb cholesterol medium: -2.489%; Mtb glucose medium: 2.605%.
CN(C(=O)NCCCOC1CCOC1)C1CCC1 (centres undefined) read Mtb cholesterol medium: 4.647%; Mtb glucose medium: 20.71%.
O=C(CCCN1CCCCC1)NCCc1cnccn1 read Mtb cholesterol medium: 4.625%; Mtb glucose medium: 4.841%.
Cc1noc(COc2ccc(S(C)(=O)=O)cc2)n1 read Mtb cholesterol medium: -23.57%; Mtb glucose medium: -13.26%.
CS(=O)(=O)CCN1CCC(c2ccn[nH]2)CC1 read Mtb cholesterol medium: -11.11%; Mtb glucose medium: -5.18%.
CCn1cc(S(=O)(=O)N2CCC(N)CC2)cn1 read Mtb cholesterol medium: -10.61%; Mtb glucose medium: -6.943%.
CN(C)C(CNC(=O)Nc1nccs1)c1ccco1 (centres undefined) read Mtb cholesterol medium: -0.754%; Mtb glucose medium: 10.98%.
CC(C)c1nc(CN(C)Cc2cncn2C)no1 read Mtb cholesterol medium: -9.887%; Mtb glucose medium: 1.582%.
CC(C)Cn1cc(NC(=O)N2CCC(O)C2)cn1 (centres undefined) read Mtb cholesterol medium: -27.37%; Mtb glucose medium: -12.44%.
Cn1cc(NS(=O)(=O)c2cccc(Br)c2)ccc1=O read Mtb cholesterol medium: -12.49%; Mtb glucose medium: 22.64%.
COc1c(CNCCCN(C)S(C)(=O)=O)c(C)nn1C read Mtb cholesterol medium: 2.471%; Mtb glucose medium: 7.096%.
CNC(=O)[C@@H]1CSCN1c1ccc(C(F)(F)F)cn1 read Mtb cholesterol medium: -22.32%; Mtb glucose medium: 1.344%.
Cc1nnc(CNC(=O)c2ccccc2OC(F)F)o1 read Mtb cholesterol medium: 43.94%; Mtb glucose medium: -3.605%.
Cc1ncc(O)c(N)n1 read Mtb cholesterol medium: 1.813%; Mtb glucose medium: 6.723%.
N#CCCN1CCC(NC(=O)C2CC2)CC1 read Mtb cholesterol medium: -16.37%; Mtb glucose medium: -4.46%.
CS(=O)(=O)Cc1ccc(NC(=O)N2CCCC2)cc1F read Mtb cholesterol medium: 4.198%; Mtb glucose medium: 0.5793%.
COc1cc(CNC2CCC(O)CC2)cc2c1OCO2 (centres undefined) read Mtb cholesterol medium: -11.06%; Mtb glucose medium: 0.0908%.
Nc1nc(CNC(=O)CCN2CCCCCC2=O)n[nH]1 read Mtb cholesterol medium: -8.801%; Mtb glucose medium: -7.738%.
COc1cccc(NC(=O)NCCN(C)C(C)C)c1 read Mtb cholesterol medium: 17.23%; Mtb glucose medium: 9.391%.
Cc1cc(F)cc(C(=O)N[C@H](CO)C(C)C)c1 read Mtb cholesterol medium: 11.51%; Mtb glucose medium: 15.36%.
Cc1cc(CN)ccc1S(C)(=O)=O read Mtb cholesterol medium: -2.218%; Mtb glucose medium: 4.024%.
Cc1cc(C)c(C(=O)N2CCOCC(CO)C2)c(=O)[nH]1 (centres undefined) read Mtb cholesterol medium: -19.44%; Mtb glucose medium: -7.518%.

Some entries from above, unchanged:

structure	Mtb cholesterol medium	Mtb glucose medium
COc1c(CNCCCN(C)S(C)(=O)=O)c(C)nn1C	2.471%	7.096%
N#CCCN1CCC(NC(=O)C2CC2)CC1	-16.37%	-4.46%
CS(=O)(=O)CCN1CCC(c2ccn[nH]2)CC1	-11.11%	-5.18%

Source: ChEMBL document CHEMBL3988442, “University of Dundee, Small-Polar-MMV Screening Library” (2021).